Reference: patent US9096835B2, “DNA polymerase” (Medical Research Council, priority 2003, dated 2015)
“And” between values parts separate entries of the source, which are not always exact repeats. Equal values may be shown once.

B1: M4: Taq mutant D58G, R74P, A109T, L245R, R343G, G370D, E520G, N583S, E694K, A743P; SEQ ID NO 2 (protein)
chain: MRGMLPLYEPKGRVLLVDGHHLAYRTFHALKGLTTSRGEPVQAVYGFAKSLLKALKEGGDAVIVVFDAKAPSFPHEAYGGYKAGRAPTPEDFPRQLALIKELVDLLGLTRLEVPGYEADDVLASLAKKAEKEGYEVRILTADKDLYQLLSDRIHVLHPEGYLITPAWLWEKYGLRPDQWADYRALTGDESDNLPGVKGIGEKTARKLLEEWGSLEALLKNLDRLKPAIREKILAHMDDLKLSWDRAKVRTDLPLEVDFAKRREPDRERLRAFLERLEFGSLLHEFGLLESPKALEEAPWPPPEGAFVGFVLSRKEPMWADLLALAAARGGRVHRAPEPYKALGDLKEARGLLAKDLSVLALREGLGLPPDDDPMLLAYLLDPSNTTPEGVARRYGGEWTEEAGERAALSERLFANLWGRLEGEERLLWLYREVERPLSAVLAHMEATGVRLDVAYLRALSLEVAEEIARLEAEVFRLAGHPFNLNSRDQLERVLFDELGLPAIGKTEKTGKRSTSAAVLGALREAHPIVEKILQYRELTKLKSTYIDPLPDLIHPRTGRLHTRFNQTATATGRLSSSDPNLQSIPVRTPLGQRIRRAFIAEEGWLLVALDYSQIELRVLAHLSGDENLIRVFQEGRDIHTETASWMFGVPREAVDPLMRRAAKTINFGVLYGMSAHRLSQELAIPYEEAQAFIKRYFQSFPKVRAWIEKTLEEGRRRGYVETLFGRRRYVPDLEARVKSVREPAERMAFNMPVQGTAADLMKLAMVKLFPRLEEMGARMLLQVHDELVLEAPKERAEAVARLAKEVMEGVYPLAVPLEVEVGIGEDWLSAKE
modifications: Mutant Thermus aquaticus DNA polymerase
B2: M1: Taq mutant G84A, D144G, K314R, E520G, F598L, A608V, E742G; SEQ ID NO: 1 (protein)
chain: MRGMLPLFEPKGRVLLVDGHHLAYRTFHALKGLTTSRGEPVQAVYGFAKSLLKALKEDGDAVIVVFDAKAPSFRHEAYGGYKAARAPTPEDFPRQLALIKELVDLLGLARLEVPGYEADDVLASLAKKAEKEGYEVRILTADKGLYQLLSDRIHVLHPEGYLITPAWLWEKYGLRPDQWADYRALTGDESDNLPGVKGIGEKTARKLLEEWGSLEALLKNLDRLKPAIREKILAHMDDLKLSWDLAKVRTDLPLEVDFAKRREPDRERLRAFLERLEFGSLLHEFGLLESPKALEEAPWPPPEGAFVGFVLSRREPMWADLLALAAAAGGRVHRAPEPYKALRDLKEARGLLAKDLSVLALREGLGLPPGDDPMLLAYLLDPSNTTPEGVARRYGGEWTEEAGERAALSERLFANLWGRLEGEERLLWLYREVERPLSAVLAHMEATGVRLDVAYLRALSLEVAEEIARLEAEVFRLAGHPFNLNSRDQLERVLFDELGLPAIGKTEKTGKRSTSAAVLGALREAHPIVEKILQYRELTKLKSTYIDPLPDLIHPRTGRLHTRFNQTATATGRLSSSDPNLQNIPVRTPLGQRIRRAFIAEEGWLLVVLDYSQIELRVLAHLSGDENLIRVFQEGRDIHTETASWMFGVPREAVDPLMRRAAKTINFGVLYGMSAHRLSQELAIPYEEAQAFIERYFQSFPKVRAWIEKTLEEGRRRGYVETLFGRRRYVPDLEARVKSVRGAAERMAFNMPVQGTAADLMKLAMVKLFPRLEEMGARMLLQVHDELVLEAPKERAEAVARLAKEVMEGVYPLAVPLEVEVGIGEDWLSAKE
modifications: Mutant Thermus aquaticus DNA polymerase

Test system: PCR fragments of the cloned Taq gene
Experiment: mutS ELISA fidelity assay
Assay type: biochemical
Conditions: MutS assay and sequencing of PCR amplification products

Row | Molecule | increase in the overall mutation rate compared to wtTaq
1 | B1 | 1.6 fold
2 | B2 | < 2 fold and 1.6 fold
